In all, about 320,000 compounds went through this assay and about 2,100 (0.66%) were called active. The inconclusive results got no clear call from the source; some entries with a clear call stand among them for comparison. The call rests on the fitted dose curve; in most records, active means well fitted inhibition curve with a large enough effect in the signal ratio, with a control signal flat (not every such curve was filed as active); inconclusive means small, poorly fitted or top-dose-only effect, or effect the other way, or a change in a side signal; inactive means flat fitted curve, though single readings scatter; the % refers to the signal ratio. Potencies of inconclusive entries are doubtful fits and often do not repeat.
test: qHTS Assay for Lipid Storage Modulators in Drosophila S3 Cells; conditions: BODIPY lipid droplet fluorescence, 18-24 h, cells fed with added oleic acid; lipid storage change, negative = inhibition: at 46.1 µM (top of the series) unless noted
Method in brief: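 Drosophila S3 cells loaded with oleic acid (400 uM, as added) and compounds at several concentrations; lipid droplets imaged by 488-nm laser-scanning cytometry, 500–530 nm intensity and object ratio to cell channel. Percent activity normalized to 20 uM Triacsin C.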
On the % scale 0 is the no-effect control and ±100 the full control effect; potency means the concentration at half of the fitted maximal effect.

Structure (SMILES)	Potency	lipid storage change, negative = inhibition
COc1ccc(NC(=O)NNC(=O)C(C)Oc2ccc3ccccc3c2)cc1OC (stereo not given)	inconclusive: 29.1 µM [activator, single point]	–
CCCSCCCNC(=O)Cn1c(=O)c2cccn2c2ccccc21	–	inconclusive: -17.8%
CC(=O)N1CCOc2ccc(S(=O)(=O)N3CCN(c4cccc(C(F)(F)F)c4)CC3)cc21	–	inconclusive: 41.3%
N#CC(Cc1ccccc1)(Cc1ccccc1)C(=O)NN	–	inconclusive: 27.6%
S=C(NCCCn1ccnc1)Nc1ccc(Cl)cc1Cl	–	inconclusive: 9.18%
CCc1cccc(CC)c1NC(=S)NCc1ccc2c(c1)OCO2	–	inconclusive: 27.6%
C/C(N)=C(/C#N)C(=O)CSc1nnc(Nc2ccccc2C)s1	–	inconclusive: -0.465%
Cc1cc(Cl)cc(Br)c1OCCCN1C(=O)NC(C)(C)C1=O	–	inconclusive: -15.9%
CCOc1cccc2sc(N(CCN(C)C)C(=O)c3cc4ccccc4cc3OC)nc12	inconclusive: 18.4 µM [falling, single point]	–
CCCN1C(=O)c2cc(C(=O)Nc3ccccc3C)ccc2C1Nc1ccccc1C (stereo not given)	–	inconclusive: 20.4%
COc1cccc(/C=N/NC(N)=S)c1OCc1cccc(Cl)c1	active: 8.2 µM	–
CO/N=C(\Cn1ncc(NC2CCCCC2)c(Br)c1=O)c1ccc(Cl)cc1	inconclusive: 23.1 µM [activator, single point]	–
Cn1nc(-c2ccc(C(=O)O)cc2)c2ccccc2c1=O	inconclusive: 6.51 µM [activator, single point]	–
CCCC(C(=O)Nc1ccc(S(=O)(=O)Nc2ncccn2)cc1)c1ccccc1 (stereo not given)	inconclusive: 0.58 µM [falling, single point]	–
Cc1ccc(-c2noc(CCCC(=O)Nc3cccnc3)n2)cc1	–	inconclusive: -32.7%
CCCn1c(SCC(=O)Nc2cc(Cl)ccc2OC)nc(O)cc1=O	–	inconclusive: 7.21%
COc1ccc(CCNC(=O)c2cc3ccccn3n2)c(OC)c1OC	–	inconclusive: 42.8%
O=C(Nc1csc([N+](=O)[O-])c1)Nc1ccccc1Cl	–	inconclusive: -37.4%
Cc1ccc(OCC(=O)Nc2ccc3c(c2)nc(CCN2CCCCC2)n3C)cc1	–	inconclusive: -7.93%
Cc1nnc(NC(=O)C2CCN(S(=O)(=O)c3ccc(F)c(Cl)c3)CC2)o1	–	inconclusive
Cc1csc(NC(=O)CSc2nnc(-c3cc(C)on3)o2)n1	–	inconclusive: -14.5%
CCc1ccccc1NC(=O)C1CCN(S(=O)(=O)c2ccc3c(c2)N(C(C)=O)CCO3)CC1	inconclusive: 29.1 µM [falling, single point]	–
COc1ccc(NC(=O)C(=O)NCCN2CCN(C(=O)C(c3ccccc3)c3ccccc3)CC2)cc1	inconclusive: 1.64 µM [activator, partial curve]	–
COc1ccc(NC(=O)O/N=C/c2ccc(N(C)C)cc2)cc1	–	inconclusive: 0.704%
CN(CC(=O)Nc1cccc(F)c1)C(=O)c1cccnc1Sc1ccccc1	–	inconclusive

Structure (SMILES)	Potency	lipid storage change, negative = inhibition
CCCOc1ccccc1N1C(=O)CC(N2CCOCC2)C1=O (stereo not given)	–	inconclusive: 56.2%
Cc1ccc(S(=O)(=O)N2CCOCC2)cc1C(=O)NCc1ccccc1CN1CCCC1	–	inconclusive: -1.49%
COc1ccc(C(=O)NNC(=O)OC(C)(C)C)cc1	inconclusive: 0.259 µM [falling, full curve, poor fit]	–
CCOc1ccc(NS(=O)(=O)c2cc(C(=O)N3CC(C)OC(C)C3)ccc2C)cc1 (stereo not given)	–	inactive
CCOC(=O)N1CCc2c(sc3c2c(=O)n(Cc2ccccc2)c(=O)n3Cc2cccc(C)c2)C1	–	inconclusive: 38.6%
CC1c2[nH]c3ccccc3c2C[C@H]2C(=O)N(CCCN(C)C)CC(=O)N12 (stereo not given in full)	inconclusive: 29.1 µM [activator, single point]	–
CCc1cc2c(=O)[nH]c(CC(N)=O)nc2s1	–	inconclusive: -44.6%
CCOC(=O)N1CCN(C(=O)C2CCN(c3ncnc4c3sc3cccc(F)c34)CC2)CC1	–	inconclusive: -63%
C=CCn1c(CCSCc2ccc(OC)c(C)c2)n[nH]c1=S	–	inconclusive: 27.5%
CCOC(=O)N1CCN(c2c(NCCCOC(C)C)c(=O)c2=O)CC1	–	inconclusive: 10.1%
Cc1ccc(-n2c(C)cc(/C=N/NC(=O)Cn3c4ccccc4c(=O)c4ccccc43)c2C)cc1	–	inconclusive: 41.8%
O=C(Nc1cccc(S(=O)(=O)N2CCCCC2)c1)c1ccc2c(c1)OCO2	inconclusive: 0.058 µM [activator, full curve, poor fit]	–
CC1=C(C(N)=O)C(c2ccc(F)cc2)n2nc(CCCO)nc2N1 (stereo not given)	–	inconclusive: 30.7%
Cc1cc(C)cc(N(CCC#N)C(=O)COC(=O)C2CCN(S(=O)(=O)c3ccc(C)c(C)c3)CC2)c1	–	inconclusive
O=C(Nc1nccs1)c1cc2sccc2n1Cc1ccc(Cl)cc1	–	inconclusive: -1.68%
CCCc1cc2nnc(SCC(=O)N(C)C3CCCCC3)n2c(N)n1	inconclusive: 0.731 µM [activator, partial curve]	–
Cc1ccc(-n2nc(C)c3c(C)c(CCC(=O)NCC4CCCO4)c(=O)n(C)c32)cc1 (stereo not given)	–	inconclusive: -62.9%
N/C(=N\OC(=O)CC1CCCCC1)c1ccncc1	–	inconclusive: 27.1%
O=C(NCc1cccc(Cl)c1)C1CCC(=O)N(CCCN2CCOCC2)C1 (stereo not given)	inconclusive: 4.61 µM [activator, partial curve, poor fit]	–
Cc1cc(C)cc(NC(=O)CSc2nnc(C3CC3)n2CC2CCCO2)c1 (stereo not given)	inconclusive: 2.31 µM [activator, partial curve]	–
CCN(CC)c1ccc(C2N(C(=O)N3CCOCC3)CCN2S(=O)(=O)c2ccc(C)cc2)cc1 (stereo not given)	–	inconclusive: 62.8%
Cc1ccccc1C(=O)Nc1ccnc(-c2ccncc2)n1	–	inconclusive: -3.92%
CCO/N=C/C(=O)Nc1ccc(F)cc1F	–	inconclusive: -14.6%
Cc1ccc(Cn2c(=O)n(C)c(=O)c3sccc32)cc1	–	inconclusive: -34%
CCOC(=O)c1c(C)cc(=O)oc1C	inconclusive: 32.6 µM [cytotoxic, partial curve, poor fit]	–

Entries from the list above containing bromine (2):
Structure (SMILES)	Potency	lipid storage change, negative = inhibition
Cc1cc(Cl)cc(Br)c1OCCCN1C(=O)NC(C)(C)C1=O	–	inconclusive: -15.9%
CO/N=C(\Cn1ncc(NC2CCCCC2)c(Br)c1=O)c1ccc(Cl)cc1	inconclusive: 23.1 µM [activator, single point]	–

Source: PubChem BioAssay AID2685 (National Center for Advancing Translational Sciences (NCATS), 2010)
